Assay results taken from paper PMC8097052.
Where two headings read alike, the source gives them in different places. Results are given in words; binding and its absence hold for the method and conditions named. Binding seen in cells or lysates may run through a third protein. Some results given as binding are weak or reduced against the parent protein; the word gives no strength.

By UniProt entry, the sequences of proteins in these tests, tags left out.
UniProt Q8NHY2: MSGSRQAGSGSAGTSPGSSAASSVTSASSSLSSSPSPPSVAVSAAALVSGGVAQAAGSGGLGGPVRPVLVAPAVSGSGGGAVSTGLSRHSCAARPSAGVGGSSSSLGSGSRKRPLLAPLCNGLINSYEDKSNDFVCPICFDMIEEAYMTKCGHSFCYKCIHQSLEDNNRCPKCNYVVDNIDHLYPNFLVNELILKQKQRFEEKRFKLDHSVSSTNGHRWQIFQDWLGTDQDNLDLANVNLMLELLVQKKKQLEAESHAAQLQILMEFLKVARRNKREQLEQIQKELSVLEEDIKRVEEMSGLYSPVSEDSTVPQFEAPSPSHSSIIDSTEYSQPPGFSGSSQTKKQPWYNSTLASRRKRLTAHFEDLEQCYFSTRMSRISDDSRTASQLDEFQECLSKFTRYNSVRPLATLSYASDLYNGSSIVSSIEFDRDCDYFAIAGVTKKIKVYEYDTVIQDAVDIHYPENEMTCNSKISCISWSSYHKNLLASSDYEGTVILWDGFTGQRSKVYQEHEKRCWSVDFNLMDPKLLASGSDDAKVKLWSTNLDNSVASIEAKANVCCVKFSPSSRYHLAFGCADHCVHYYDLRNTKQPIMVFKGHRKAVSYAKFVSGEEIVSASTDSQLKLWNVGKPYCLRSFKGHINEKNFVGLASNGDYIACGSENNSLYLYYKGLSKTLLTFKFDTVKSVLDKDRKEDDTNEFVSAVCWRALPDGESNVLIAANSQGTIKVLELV
UniProt P46527: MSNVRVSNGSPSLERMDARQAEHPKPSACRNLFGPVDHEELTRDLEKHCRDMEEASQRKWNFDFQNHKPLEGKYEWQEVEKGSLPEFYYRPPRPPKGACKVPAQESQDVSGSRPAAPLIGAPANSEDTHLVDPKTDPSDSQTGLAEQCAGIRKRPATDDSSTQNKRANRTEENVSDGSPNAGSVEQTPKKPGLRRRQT

Experiments:
[1] = molecular target: RFWD2 (constitutive photomorphogenic 1), FLAG-tagged, overexpressed from the human RFWD2 cDNA (human) (UniProt Q8NHY2); assay: co-IP; Pierce Direct Magnetic IP/Co-IP kit; FLAG antibody for IP of FLAG-RFWD2, immunoblot for the partner; RFWD2 WT/OE ARP1 and H929 cells; IgG of the same host as negative control
[2] = molecular target: RFWD2 (constitutive photomorphogenic 1), FLAG-tagged, overexpressed from the human RFWD2 cDNA (human) (UniProt Q8NHY2); assay: as above; remark: listed apart in the source

P27 (cyclin/CDK2 inhibitor) (from UniProt P46527 1-198)
binding [1]: binds

B1: RING-finger and CHY-zinc-finger domain-containing protein 1 (RCHY1) (enzyme, UniProt Q96PM5 1-261)
chain: MAATAREDGASGQERGQRGCEHYDRGCLLKAPCCDKLYTCRLCHDNNEDHQLDRFKVKEVQCINCEKIQHAQQTCEECSTLFGEYYCDICHLFDKDKKQYHCENCGICRIGPKEDFFHCLKCNLCLAMNLQGRHKCIENVSRQNCPICLEDIHTSRVVAHVLPCGHLLHRTCYEEMLKEGYRCPLCMHSALDMTRYWRQLDDEVAQTPMPSEYQNMTVDILCNDCNGRSTVQFHILGMKCKICESYNTAQAGGRRISLDQQ
binding [2]: binds
